This assay concerns the target T1, Unc-51 like autophagy-activating kinase 1 (ULK1) (mouse (endogenous in MEF)) (UniProt O70405).
T1 sequence: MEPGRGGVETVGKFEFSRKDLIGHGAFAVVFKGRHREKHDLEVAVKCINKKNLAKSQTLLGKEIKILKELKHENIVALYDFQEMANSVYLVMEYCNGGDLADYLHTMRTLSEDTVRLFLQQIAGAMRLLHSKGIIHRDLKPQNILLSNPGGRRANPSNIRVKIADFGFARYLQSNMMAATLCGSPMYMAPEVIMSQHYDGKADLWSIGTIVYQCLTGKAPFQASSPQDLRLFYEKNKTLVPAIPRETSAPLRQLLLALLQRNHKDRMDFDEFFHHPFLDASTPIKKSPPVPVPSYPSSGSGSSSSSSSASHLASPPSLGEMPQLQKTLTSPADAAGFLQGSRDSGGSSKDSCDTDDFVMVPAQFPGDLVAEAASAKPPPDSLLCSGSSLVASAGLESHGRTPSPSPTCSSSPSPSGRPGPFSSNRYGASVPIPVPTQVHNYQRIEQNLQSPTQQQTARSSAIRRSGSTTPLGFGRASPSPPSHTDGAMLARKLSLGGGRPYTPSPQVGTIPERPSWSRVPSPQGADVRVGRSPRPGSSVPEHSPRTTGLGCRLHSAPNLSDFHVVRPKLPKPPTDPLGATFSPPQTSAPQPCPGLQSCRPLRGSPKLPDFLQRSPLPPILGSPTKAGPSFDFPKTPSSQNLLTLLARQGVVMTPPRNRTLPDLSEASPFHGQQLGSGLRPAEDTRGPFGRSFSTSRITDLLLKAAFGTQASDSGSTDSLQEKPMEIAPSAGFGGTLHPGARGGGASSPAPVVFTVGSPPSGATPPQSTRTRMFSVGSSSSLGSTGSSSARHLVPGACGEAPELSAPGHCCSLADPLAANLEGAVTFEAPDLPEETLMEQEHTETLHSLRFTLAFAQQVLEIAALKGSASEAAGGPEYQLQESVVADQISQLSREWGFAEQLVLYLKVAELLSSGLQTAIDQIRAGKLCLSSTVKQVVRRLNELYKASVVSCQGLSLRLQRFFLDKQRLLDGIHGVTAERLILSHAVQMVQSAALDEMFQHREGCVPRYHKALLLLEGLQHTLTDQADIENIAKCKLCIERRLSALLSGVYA
In words: co-IP; 1 mg of total lysate protein with 7 ug ULK1 antibody (DU 34016), 60 min at 4°C, Protein A/G resin; lysis buffer 50 mM Hepes pH 7.4, 150 mM NaCl, 1 mM EDTA, 10% glycerol, 0.5% NP-40; cells in Fed or EBSS conditions treated with 2 uM MRT68921, 1 uM ULK-101, 5 uM SBI0206965 or DMSO for 1 h; blots for FIP200 and ATG13.

The chains behind the UniProt entries cited, without tags or fusion partners.
UniProt Q9ESK9: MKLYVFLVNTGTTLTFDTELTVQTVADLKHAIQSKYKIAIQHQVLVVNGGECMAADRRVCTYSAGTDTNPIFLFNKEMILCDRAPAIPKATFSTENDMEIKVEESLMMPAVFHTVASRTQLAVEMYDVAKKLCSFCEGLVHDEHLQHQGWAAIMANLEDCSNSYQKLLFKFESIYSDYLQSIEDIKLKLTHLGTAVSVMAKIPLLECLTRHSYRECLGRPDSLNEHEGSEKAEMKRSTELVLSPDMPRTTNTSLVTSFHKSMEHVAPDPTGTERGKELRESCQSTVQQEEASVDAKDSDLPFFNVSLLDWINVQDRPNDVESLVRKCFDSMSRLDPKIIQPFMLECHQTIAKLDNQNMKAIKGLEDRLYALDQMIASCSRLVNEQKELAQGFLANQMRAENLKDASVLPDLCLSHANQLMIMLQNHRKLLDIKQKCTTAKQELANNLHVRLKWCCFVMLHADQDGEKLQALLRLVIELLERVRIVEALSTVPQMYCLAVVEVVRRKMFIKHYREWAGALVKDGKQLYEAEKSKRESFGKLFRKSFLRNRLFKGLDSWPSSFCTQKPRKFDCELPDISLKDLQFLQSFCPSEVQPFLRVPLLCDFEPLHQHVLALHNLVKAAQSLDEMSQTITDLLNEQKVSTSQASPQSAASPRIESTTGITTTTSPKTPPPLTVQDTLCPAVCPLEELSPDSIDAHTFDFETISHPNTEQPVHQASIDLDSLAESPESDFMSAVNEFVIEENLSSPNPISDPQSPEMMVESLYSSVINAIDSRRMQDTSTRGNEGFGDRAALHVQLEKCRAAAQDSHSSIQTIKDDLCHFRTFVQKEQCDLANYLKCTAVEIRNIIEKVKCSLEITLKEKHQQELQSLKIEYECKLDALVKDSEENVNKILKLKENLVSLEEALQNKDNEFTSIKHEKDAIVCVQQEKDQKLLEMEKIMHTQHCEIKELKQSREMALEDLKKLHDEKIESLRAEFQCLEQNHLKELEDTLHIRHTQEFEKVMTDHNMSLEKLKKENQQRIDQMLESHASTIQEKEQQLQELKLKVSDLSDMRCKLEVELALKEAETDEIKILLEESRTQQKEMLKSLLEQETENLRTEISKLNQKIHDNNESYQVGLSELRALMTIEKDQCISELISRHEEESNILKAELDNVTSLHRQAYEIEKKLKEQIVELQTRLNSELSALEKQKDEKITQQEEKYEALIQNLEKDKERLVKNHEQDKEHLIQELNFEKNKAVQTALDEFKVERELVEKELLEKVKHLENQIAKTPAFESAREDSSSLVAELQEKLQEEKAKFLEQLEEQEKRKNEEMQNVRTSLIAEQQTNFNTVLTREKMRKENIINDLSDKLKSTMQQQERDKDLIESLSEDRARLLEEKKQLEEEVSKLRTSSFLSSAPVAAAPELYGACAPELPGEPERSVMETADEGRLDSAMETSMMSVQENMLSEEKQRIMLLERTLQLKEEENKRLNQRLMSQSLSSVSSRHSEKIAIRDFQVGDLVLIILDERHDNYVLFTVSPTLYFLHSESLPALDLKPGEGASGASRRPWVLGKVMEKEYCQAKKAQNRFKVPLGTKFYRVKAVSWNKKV

For two molecules, binding results are on record in PMC7652397.

No constants are given. Whether binding was seen depends on the method and setting. Binding seen in cells or lysates may run through a third protein. Some binding calls cover weakened binding; strength is not graded here.

As for “FAK family interacting protein of 200 kD (FIP200) (from UniProt Q9ESK9 1-1588)”, the binding result is “binds”.

B1: Autophagy related (ATG) 13 (ATG13) (protein, UniProt Q91YI1 1-516)
chain: METELSSQDRKDLDKFIKFFALKTVQVIVQARLGEKICTRSSSSPTGSDWFNLAIKDIPEVTHEAKKALSGQLPAVGRSMCVEISLKTSEGDSMELEIWCLEMNEKCDKEIKVSYTVYNRLSLLLKSLLAITRVTPAYRLSRKQGHEYVILYRIYFGEVQLNGLGEGFQTVRVGTVGTPVGTLTLSCAYRINLAFMSTRQFERTPPIMGIIIDHFVDRPYPSSSPMHPCNYRTAEDAGVAYPSVEDSQEVCTTSFSTSPPSQLSSSRLSYQPAVLGLGSADLAYPVVFTAGLNTTHAHQLMVPGKEGGVTLAPSHPTHGAQADPERLVMHMPSDGTHCAATPSSSEDTETVSNSSEGRASPHDILETIFVRKVGAFVNKPINQVTVTSLDIPFAMFAPKNLELEDADPMVNPPESPETTSPLHGSLHSDGSSGGSGGSTHDDFVMIDFKPAFSKDDILPMDLGTFYREFQNPPQLSSLSIDFGAQSMAEDLDSLPEKLAVHEKNVREFDAFVETLQ
Regarding B1, the binding result is “binds”.
